From patent publication US20100092409A1 (DANISCO US, published 2010)
Changes are numbered by the printed parent chain. Names and notes keep the numbering of the source. No constants are given. Whether binding was seen depends on the method and setting. Some results given as binding are weak or reduced against the parent protein; the word gives no strength. For some assays here: Where a sequence is shown, tags or fusion partners need not be part of it.

Sequences of proteins named here, by UniProt entry; tags and fusion partners are left off. A change or cut given only in a name is not applied to a line headed by its entry. A line that says so, or that is headed by a name, gives the form on record, which may keep a tag or linker. Residues count along the entry.
vascular endothelial growth factor (VEGF) (P15692-4, form named): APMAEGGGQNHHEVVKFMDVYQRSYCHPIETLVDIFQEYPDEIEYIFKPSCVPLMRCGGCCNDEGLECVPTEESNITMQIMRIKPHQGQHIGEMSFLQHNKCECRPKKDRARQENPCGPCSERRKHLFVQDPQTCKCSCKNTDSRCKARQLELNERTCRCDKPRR
UniProt P01137, residues 279-390: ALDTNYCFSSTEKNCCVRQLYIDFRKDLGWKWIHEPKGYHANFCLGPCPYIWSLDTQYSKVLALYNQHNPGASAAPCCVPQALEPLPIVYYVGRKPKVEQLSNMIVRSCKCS
UniProt P01375, residues 77-233: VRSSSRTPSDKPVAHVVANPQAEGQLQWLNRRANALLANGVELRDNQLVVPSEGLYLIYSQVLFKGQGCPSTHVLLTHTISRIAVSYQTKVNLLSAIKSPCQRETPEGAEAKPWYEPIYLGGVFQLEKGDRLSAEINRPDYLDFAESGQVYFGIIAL

T1: fibroblast growth factor 5 (FGF-5) (UniProt P12034)
T1 sequence (looked up): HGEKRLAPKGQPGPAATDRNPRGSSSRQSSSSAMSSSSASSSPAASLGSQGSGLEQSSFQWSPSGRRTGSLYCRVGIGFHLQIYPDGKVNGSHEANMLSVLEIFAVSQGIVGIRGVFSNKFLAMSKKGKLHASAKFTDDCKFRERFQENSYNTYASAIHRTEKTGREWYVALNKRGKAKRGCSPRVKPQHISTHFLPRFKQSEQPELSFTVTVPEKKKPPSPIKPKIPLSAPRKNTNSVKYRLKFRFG

B1: BBIt-AV-A13I-L29P-A40K-F50T-V52A (designed binder)
chain: DPDDESSKPCCDQCICTKSNPPQCRCSDMRPNSCHSACKSCKCYNLYGWTCTCADITDFCYEPCKPSE
notes: also called TA5; quintuple variant
B2: BBIt-AV-A13I-A40K-F50T-V52A (designed binder)
chain: B1 chain with P31L
B3: BBIt-AV-A13I-S25K-M27A-L29R-S31A-A40H-F50R-V52L (designed binder)
chain: B1 chain with S27K, M29A, P31R, S33A, K42H, T52R, A54L
notes: also called RL8
B4: BBIt-AV-A13I-S25K-M27A-L29R-S31E-A40K-F50Q-V52Q (designed binder)
chain: B1 chain with S27K, M29A, P31R, S33E, T52Q, A54Q
notes: also called QQ8
B5: BBIt-AV-A13I-S25R-M27A-L29P-S31A-A40H-F50K-V52T (designed binder)
chain: B1 chain with S27R, M29A, S33A, K42H, T52K, A54T
notes: also called KT8
B6: BBIt-VEGKD-A13I-S25K-L29P-V52K (designed binder)
chain: DPDDESSKPCCDQCICTKSNPPQCRCKDMRPNSCHSACKSCICKYDLYWWCFCKDITDFCYEPCKPSE
notes: also called VegKD-Q
B7: BBIt-VEGF-V5-A13I-S25R-M27A-L29P-S31A-F50K-V52T (designed binder)
chain: DPDDESSKPCCDQCICTKSNPPQCRCRDARPNACHSACKSCACKPSSASSCKCTDITDFCYEPCKPSE
notes: also called BBIt-AV-V5
B8: BBIt-VEGF-V1-A13I-S25R-M27A-L29P-S31A-F50K-V52T (designed binder)
chain: B7 chain with K44S, P45K, S46H, A48Q, S49I, S50T
notes: also called BBIt-AV-V1
B9: BBIt-VEGF-V2-A13I-S25R-M27A-L29P-S31A-F50K-V52T (designed binder)
chain: B7 chain with P45T, S46N, S47P, A48S, S49G
notes: also called BBIt-AV-V2
B10: BBIt-VEGF-V3-A13I-S25R-M27A-L29P-S31A-F50K-V52T (designed binder)
chain: B7 chain with K44R, S46T, S47G, A48H, S50L
notes: also called BBIt-AV-V3
B11: BBIt-VEGF-V4-A13I-S25R-M27A-L29P-S31A-F50K-V52T (designed binder)
chain: B7 chain with P45H, S47A, A48K, S49A, S50E
notes: also called BBIt-AV-V4
B12: BBIt-VEGF-V6-A13I-S25R-M27A-L29P-S31A-F50K-V52T (designed binder)
chain: B7 chain with K44P, P45V, S46T, S47K, A48R, S49V, S50H
notes: also called BBIt-AV-V6
B13: BBtc-AV (Torresea cearensis Bowman Birk Inhibitor with CK37281 in the second protease inhibitory loop) (designed binder)
chain: DPSSKWEACCDRCACTKSIPPQCHCADIRLNSCHSACESCACYNLYGWTCRCFDITDFCYKPCSG
notes: also called BBItc-AV
B14: BBdb-AV (Dolichos biflorus Bowman Birk Inhibitor with CK37281 in the second protease inhibitory loop) (designed binder)
chain: DPSESSKPCCDQCACTKSIPPQCRCTDVRLNSCHSACSSCACYNLYGWTCVCVDMKDFCYEPCK
notes: also called BBIdb-AV
B15: MM007-Q-BBIt-FGF-5 (designed binder)
chain: B1 chain with K42A, Y44R, N45T, L46Q, Y47P, G48Y, W49P, T50L
notes: also called BBIt-MM007-Q-A13I-L29P-F50T-V52A
B16: FGFps2-Q-BBIt-FGF-5 (designed binder)
chain: B1 chain with K42A, Y44T, N45W, L46I, Y47D, G48S, W49T, T50P
notes: also called BBIt-FGFps2-Q-A13I-L29P-F50T-V52A
B17: PEN3-Q-BBIt-TGFβ1 (designed binder)
chain: DPDDESSKPCCDQCICTKSNPPQCRCSDMRPNSCHSACKSCACPENINVLPCTCADITDFCYEPCKPSE
notes: also called BBIt-PEN3-Q-A13I-L29P-F50T-V52A
B18: MM021W-Q-BBIt-TGFβ1 (designed binder)
chain: B1 chain with K42A, Y44K, N45H, L46N, Y47V, G48D, T50L
notes: also called BBIt-MM021W-Q-A13I-L29P-F50T-V52A
B19: BBIt-TNFα-T1-A13I-S25R-M27A-L29P-S31A-F50K-V52T (designed binder)
chain: B7 chain with K44R, P45Y, S46W, S47Q, A48D, S49I, S50P
notes: also called BBIt-TNF-T1
B20: BBIt-TNFα-T2-A13I-S25R-M27A-L29P-S31A-F50K-V52T (designed binder)
chain: B7 chain with K44A, S46E, S47P, A48I, S49L, S50A
notes: also called BBIt-TNF-T2
B21: BBIt-TNFα-T3-A13I-S25R-M27A-L29P-S31A-F50K-V52T (designed binder)
chain: B7 chain with K44D, P45M, S46I, S47M, A48V, S50I
notes: also called BBIt-TNF-T3
B22: BBsb3-AV (soybean protease inhibitor IV or D-II with CK37281 in the second protease inhibitory loop) (designed binder)
chain: DPDDEYSKPCCDLCMCTRSMPPQCSCEDIRLNSCHSDCKSCACYNLYGWTCRCLDTNDFCYKPCKSRDD
B23: 2BBIck81 (BBI-AV; Bowman-Birk Inhibitor Anti-VegF) (designed binder)
chain: DDESSKPCCDQCACTKSNPPQCRCSDMRLNSCHSACKSCACYNLYGWTCFCVDITDFCYEPCKPSEDDKEN
B24: CK37281 peptide (synthesized VEGF binding peptide) (peptide)
peptide: ACYNLYGWTC
B25: 1BBIck81 (BBI with the CK37281 peptide in the trypsin inhibitory loop) (designed binder)
chain: DDESSKPCCDQCACYNLYGWTCRCSDMRLNSCHSACKSCICALSYPAQCFCVDITDFCYEPCKPSEDDKEN
B26: BBIt-AV (truncated BBI-AV, unmodified variant) (designed binder)
chain: DDESSKPCCDQCACTKSNPPQCRCSDMRLNSCHSACKSCACYNLYGWTCFCVDITDFCYEPCKPSE
notes: also called CT

The binders below were run against T2, vascular endothelial growth factor (VEGF) (UniProt P15692-4 27-191, limits assumed, labeled with biotin for the BioVeris assay (sites not given)) (assay: BioVeris ECL competition (summary of Table 7)).

Binder	binding
B1	binds
B2	binds
B3	binds
B4	binds
B5	binds
B6	binds
B7	binds
B8	binds
B9	binds
B10	binds
B11	binds
B12	binds
B13	binds
B14	binds

These binders were tested against T1, fibroblast growth factor 5 (FGF-5) (assay: BioVeris ECL competition (summary of Table 7)).

Binder	binding
B15	binds
B16	binds

These binders were tested against transforming growth factor β1 (TGFβ1) (UniProt P01137) (assay: BioVeris ECL competition (summary of Table 7)).

Binder	binding
B17	binds
B18	binds

The binders below were run against tumor necrosis factor α (TNFα) (UniProt P01375) (assay: BioVeris ECL competition (summary of Table 7)).

Binder	binding
B19	binds
B20	binds
B21	binds

What follows are binders tested against T2, vascular endothelial growth factor … (assay: no row for BBsb3-AV in Table 7).

Binder	binding
B22	binds

Each binder was assayed against T2, vascular endothelial growth factor … (assay: BioVeris ECL competition; competitor Anti-VegF antibody).

Binder	binding
B23	binds
B24	binds
B25	binds

Each binder was assayed against T2, vascular endothelial growth factor … (assay: BioVeris ECL competition; competitor monoclonal antibody against VEGF).

Binder	binding
B23	binds

The binders below were run against T2, vascular endothelial growth factor … (assay: ECL (BioVeris) competition; competitor labeled monoclonal antibody against VEGF).

Binder	binding
B23	binds
B26	binds

Each binder was assayed against T2, vascular endothelial growth factor … (assay: BioVeris ECL competition; ECL-labeled Anti-VegF antibody, biotinylated VegF, streptavidin beads).

Binder	binding
B23	binds
